Measured values: US20180320217A1, “METHODS FOR SAMPLING AND MEASURING ORAL LAVAGE PROTEINS” (The Procter & Gamble Company, priority 2017, published 2018)

B1: Interleukin-3 receptor subunit alpha (protein, UniProt P26951 19-378, looked up)
Interleukin-3 receptor …: TKEDPNPPITNLRMKAKAQQLTWDLNRNVTDIECVKDADYSMPAVNNSYCQFGAISLCEVTNYTVRVANPPFSTWILFPENSGKPWAGAENLTCWIHDVDFLSCSWAVGPGAPADVQYDLYLNVANRRQQYECLHYKTDAQGTRIGCRFDDISRLSSGSQSSHILVRGRSAAFGIPCTDKFVVFSQIEILTPPNMTAKCNKTHSFMHWKMRSHFNRKFRYELQIQKRMQPVITEQVRDRTSFQLLNPGTYTVQIRARERVYEFLSAWSTPQRFECDQEEGANTRAWRTSLLIALGTLLALVCVFVICRRYLVMQRLFPRIPHMKDPIGDSFQNDKLVVWEAGKAGLEECLVTEVQVVQKT
B2: Interleukin-6 receptor subunit beta (protein, UniProt P40189 23-918, looked up)
Interleukin-6 receptor …: ELLDPCGYISPESPVVQLHSNFTAVCVLKEKCMDYFHVNANYIVWKTNHFTIPKEQYTIINRTASSVTFTDIASLNIQLTCNILTFGQLEQNVYGITIISGLPPEKPKNLSCIVNEGKKMRCEWDGGRETHLETNFTLKSEWATHKFADCKAKRDTPTSCTVDYSTVYFVNIEVWVEAENALGKVTSDHINFDPVYKVKPNPPHNLSVINSEELSSILKLTWTNPSIKSVIILKYNIQYRTKDASTWSQIPPEDTASTRSSFTVQDLKPFTEYVFRIRCMKEDGKGYWSDWSEEASGITYEDRPSKAPSFWYKIDPSHTQGYRTVQLVWKTLPPFEANGKILDYEVTLTRWKSHLQNYTVNATKLTVNLTNDRYLATLTVRNLVGKSDAAVLTIPACDFQATHPVMDLKAFPKDNMLWVEWTTPRESVKKYILEWCVLSDKAPCITDWQQEDGTVHRTYLRGNLAESKCYLITVTPVYADGPGSPESIKAYLKQAPPSKGPTVRTKKVGKNEAVLEWDQLPVDVQNGFIRNYTIFYRTIIGNETAVNVDSSHTEYTLSSLTSDTLYMVRMAAYTDEGGKDGPEFTFTTPKFAQGEIEAIVVPVCLAFLLTTLLGVLFCFNKRDLIKKHIWPNVPDPSKSHIAQWSPHTPPRHNFNSKDQMYSDGNFTDVSVVEIEANDKKPFPEDLKSLDLFKKEKINTEGHSSGIGGSSCMSSSRPSISSSDENESSQNTSSTVQYSTVVHSGYRHQVPSVQVFSRSESTQPLLDSEERPEDLQLVDHVDGGDGILPRQQYFKQNCSQHESSPDISHFERSKQVSSVNEEDFVRLKQQISDHISQSCGSGQMKMFQEVSAADAFGPGTEGQVERFETVGMEAATDEGMPKSYLPQTVRQGGYMPQ
B3: Kallikrein-12 (protein, UniProt Q9UKR0 18-248, looked up)
Kallikrein-12: ATPKIFNGTECGRNSQPWQVGLFEGTSLRCGGVLIDHRWVLTAAHCSGSRYWVRLGEHSLSQLDWTEQIRHSGFSVTHPGYLGASTSHEHDLRLLRLRLPVRVTSSVQPLPLPNDCATAGTECHVSGWGITNHPRNPFPDLLQCLNLSIVSHATCHGVYPGRITSNMVCAGGVPGQDACQGDSGGPLVCGGVLQGLVSWGSVGPCGQDGIPGVYTYICKYVDWIRMIMRNN
B4: Kallikrein-13 (protein, UniProt Q9UKR3 17-277, looked up)
Kallikrein-13: GGVSQESSKVLNTNGTSGFLPGGYTCFPHSQPWQAALLVQGRLLCGGVLVHPKWVLTAAHCLKEGLKVYLGKHALGRVEAGEQVREVVHSIPHPEYRRSPTHLNHDHDIMLLELQSPVQLTGYIQTLPLSHNNRLTPGTTCRVSGWGTTTSPQVNYPKTLQCANIQLRSDEECRQVYPGKITDNMLCAGTKEGGKDSCEGDSGGPLVCNRTLYGIVSWGDFPCGQPDRPGVYTRVSRYVLWIRETIRKYETQQQKWLKGPQ
B5: Adenylosuccinate lyase (protein, UniProt P30566 2-484, looked up)
Adenylosuccinate lyase: AAGGDHGSPDSYRSPLASRYASPEMCFVFSDRYKFRTWRQLWLWLAEAEQTLGLPITDEQIQEMKSNLENIDFKMAAEEEKRLRHDVMAHVHTFGHCCPKAAGIIHLGATSCYVGDNTDLIILRNALDLLLPKLARVISRLADFAKERASLPTLGFTHFQPAQLTTVGKRCCLWIQDLCMDLQNLKRVRDDLRFRGVKGTTGTQASFLQLFEGDDHKVEQLDKMVTEKAGFKRAFIITGQTYTRKVDIEVLSVLASLGASVHKICTDIRLLANLKEMEEPFEKQQIGSSAMPYKRNPMRSERCCSLARHLMTLVMDPLQTASVQWFERTLDDSANRRICLAEAFLTADTILNTLQNISEGLVVYPKVIERRIRQELPFMATENIIMAMVKAGGSRQDCHEKIRVLSQQAASVVKQEGGDNDLIERIQVDAYFSPIHSQLDHLLDPSSFTGRASQQVQRFLEEEVYPLLKPYESVMKVKAELCL
B6: Kallikrein-8 (protein, UniProt O60259 33-260, looked up)
Kallikrein-8: VLGGHECQPHSQPWQAALFQGQQLLCGGVLVGGNWVLTAAHCKKPKYTVRLGDHSLQNKDGPEQEIPVVQSIPHPCYNSSDVEDHNHDLMLLQLRDQASLGSKVKPISLADHCTQPGQKCTVSGWGTVTSPRENFPDTLNCAEVKIFPQKKCEDAYPGQITDGMVCAGSSKGADTCQGDSGGPLVCDGALQGITSWGSDPCGRSDKPGVYTNICRYLDWIKKIIGSKG
B7: Kininogen-1 (protein, UniProt P01042 19-644, looked up)
Kininogen-1: QESQSEEIDCNDKDLFKAVDAALKKYNSQNQSNNQFVLYRITEATKTVGSDTFYSFKYEIKEGDCPVQSGKTWQDCEYKDAAKAATGECTATVGKRSSTKFSVATQTCQITPAEGPVVTAQYDCLGCVHPISTQSPDLEPILRHGIQYFNNNTQHSSLFMLNEVKRAQRQVVAGLNFRITYSIVQTNCSKENFLFLTPDCKSLWNGDTGECTDNAYIDIQLRIASFSQNCDIYPGKDFVQPPTKICVGCPRDIPTNSPELEETLTHTITKLNAENNATFYFKIDNVKKARVQVVAGKKYFIDFVARETTCSKESNEELTESCETKKLGQSLDCNAEVYVVPWEKKIYPTVNCQPLGMISLMKRPPGFSPFRSSRIGEIKEETTVSPPHTSMAPAQDEERDSGKEQGHTRRHDWGHEKQRKHNLGHGHKHERDQGHGHQRGHGLGHGHEQQHGLGHGHKFKLDDDLEHQGGHVLDHGHKHKHGHGHGKHKNKGKKNGKHNGWKTEHLASSSEDSTTPSAQTQEKTEGPTPIPSLAKPGVTVTFSDFQDSDLIATMMPPISPAPIQSDDDWIPDIQIDPNGLSFNPISDFPDTTSPKCPGRPWKSVSEINPTTQMKESYYFDLTDGLS
B8: Kunitz-type protease inhibitor 1 (protein, UniProt O43278 36-529, looked up)
Kunitz-type protease …: GPPPAPPGLPAGADCLNSFTAGVPGFVLDTNASVSNGATFLESPTVRRGWDCVRACCTTQNCNLALVELQPDRGEDAIAACFLINCLYEQNFVCKFAPREGFINYLTREVYRSYRQLRTQGFGGSGIPKAWAGIDLKVQPQEPLVLKDVENTDWRLLRGDTDVRVERKDPNQVELWGLKEGTYLFQLTVTSSDHPEDTANVTVTVLSTKQTEDYCLASNKVGRCRGSFPRWYYDPTEQICKSFVYGGCLGNKNNYLREEECILACRGVQGGPLRGSSGAQATFPQGPSMERRHPVCSGTCQPTQFRCSNGCCIDSFLECDDTPNCPDASDEAACEKYTSGFDELQRIHFPSDKGHCVDLPDTGLCKESIPRWYYNPFSEHCARFTYGGCYGNKNNFEEEQQCLESCRGISKKDVFGLRREIPIPSTGSVEMAVAVFLVICIVVVVAILGYCFFKNQRKDFHGHHHHPPPTPASSTVSTTEDTEHLVYNHTTRPL
B9: Kunitz-type protease inhibitor 2 (protein, UniProt O43291 28-252, looked up)
Kunitz-type protease …: ADRERSIHDFCLVSKVVGRCRASMPRWWYNVTDGSCQLFVYGGCDGNSNNYLTKEECLKKCATVTENATGDLATSRNAADSSVPSAPRRQDSEDHSSDMFNYEEYCTANAVTGPCRASFPRWYFDVERNSCNNFIYGGCRGNKNSYRSEEACMLRCFRQQENPPLPLGSKVVVLAGLFVMVLILFLGASMVYLIRVARRNQERALRTVWSSGDDKEQLVKNTYVL
B10: Layilin (protein, UniProt Q6UX15 22-382, looked up)
Layilin: ATGRLLSASDLDLRGGQPVCRGGTQRPCYKVIYFHDTSRRLNFEEAKEACRRDGGQLVSIESEDEQKLIEKFIENLLPSDGDFWIGLRRREEKQSNSTACQDLYAWTDGSISQFRNWYVDEPSCGSEVCVVMYHQPSAPAGIGGPYMFQWNDDRCNMKNNFICKYSDEKPAVPSREAEGEETELTTPVLPEETQEEDAKKTFKESREAALNLAYILIPSIPLLLLLVVTTVVCWVWICRKRKREQPDPSTKKQHTIWPSPHQGNSPDLEVYNVIRKQSEADLAETRPDLKNISFRVCSGEATPDDMSCDYDNMAVNPSESGFVTLVSVESGFVTNDIYEFSPDQMGRSKESGWVENEIYGY

Tested on: proteins in oral lavage
Test: Abundance of proteins in human oral lavage (SomaLogic), TABLE 1
Format: in vivo
Conditions: for Means (Original Scale) High bleeder BL / Means (Original Scale) High bleeder W4 / Means (Original Scale) Low bleeder BL: abundance in oral lavage; for Means (Original Scale) High bleeder BL: high bleeders (gingivitis); for Means (Original Scale) High bleeder BL / Means (Original Scale) Low bleeder BL: baseline; for Means (Original Scale) High bleeder W4 / Fold Change High bleeder W4 vs High bleeder BL: high bleeders; for Means (Original Scale) High bleeder W4: week 4 of investigative products; for Means (Original Scale) Low bleeder BL: low bleeders (healthy); for Fold Change High bleeder BL vs Low bleeder BL / Fold Change High bleeder W4 vs High bleeder BL: oral lavage; for Fold Change High bleeder BL vs Low bleeder BL: high bleeders vs low bleeders at baseline; for Fold Change High bleeder W4 vs High bleeder BL: week 4 of investigative products vs baseline

Molecule | Means (Original Scale) High bleeder BL | Means (Original Scale) High bleeder W4 | Means (Original Scale) Low bleeder BL | Fold Change High bleeder BL vs Low bleeder BL | Fold Change High bleeder W4 vs High bleeder BL
B1 | 190 | 120 | 89 | 2.03 | 0.66
B2 | 63627 | 40305 | 21961 | 2.76 | 0.62
B3 | 22605 | 9720 | 523 | 6.84 | 0.76
B4 | 53398 | 32056 | 16522 | 3.40 | 0.65
B5 | 1990 | 1160 | 241 | 6.74 | 0.63
B6 | 33249 | 19220 | 15860 | 1.84 | 0.67
B7 | 95635 | 35597 | 13797 | 8.91 | 0.52
B8 | 4290 | 2333 | 2020 | 2.09 | 0.55
B9 | 414 | 303 | 304 | 1.32 | 0.76
B10 | 635 | 374 | 342 | 1.89 | 0.61
